According to patent US20170313978:
For at least one entry, the source does not settle the construct or the ends of the probe. For some of these results: No signal at the amounts used counts as a negative. For some of these results: Tags and fusion partners may be left off the protein sequences shown.

By UniProt entry, the sequences of proteins in these tests, tags left out. Where a name states a change or a piece, a line headed by the entry shows the natural chain unless it says otherwise.
UniProt P48431: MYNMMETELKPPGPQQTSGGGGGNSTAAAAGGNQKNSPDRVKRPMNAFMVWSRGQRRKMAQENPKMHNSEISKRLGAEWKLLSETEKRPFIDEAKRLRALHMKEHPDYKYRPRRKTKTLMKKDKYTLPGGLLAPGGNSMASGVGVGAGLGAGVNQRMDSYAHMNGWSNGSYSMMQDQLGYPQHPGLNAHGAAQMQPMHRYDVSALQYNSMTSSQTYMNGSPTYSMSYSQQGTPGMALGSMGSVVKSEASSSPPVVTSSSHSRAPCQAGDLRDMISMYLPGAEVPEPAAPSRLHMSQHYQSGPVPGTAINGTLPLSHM
UniProt Q01860: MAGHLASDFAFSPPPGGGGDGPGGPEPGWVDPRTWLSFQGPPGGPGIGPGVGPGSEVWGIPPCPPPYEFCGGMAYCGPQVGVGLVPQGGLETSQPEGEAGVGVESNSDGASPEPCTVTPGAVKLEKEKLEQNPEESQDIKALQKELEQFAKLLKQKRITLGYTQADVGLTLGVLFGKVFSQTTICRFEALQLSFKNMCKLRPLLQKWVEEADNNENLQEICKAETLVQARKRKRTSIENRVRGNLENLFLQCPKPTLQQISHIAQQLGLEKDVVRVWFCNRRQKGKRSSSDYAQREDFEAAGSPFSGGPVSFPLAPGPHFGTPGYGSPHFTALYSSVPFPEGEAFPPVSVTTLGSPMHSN
UniProt Q9H9S0, whole entry: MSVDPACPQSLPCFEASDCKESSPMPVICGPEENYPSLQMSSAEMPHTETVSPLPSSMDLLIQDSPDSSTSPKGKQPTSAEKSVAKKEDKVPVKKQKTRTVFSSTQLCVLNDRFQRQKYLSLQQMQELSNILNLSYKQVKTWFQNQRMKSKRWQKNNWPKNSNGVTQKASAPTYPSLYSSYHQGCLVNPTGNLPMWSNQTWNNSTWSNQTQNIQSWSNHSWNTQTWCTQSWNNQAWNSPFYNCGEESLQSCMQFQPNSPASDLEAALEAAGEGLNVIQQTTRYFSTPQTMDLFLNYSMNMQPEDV

Columns and labels:
Test in all cases: activity in cells
KLF4 = conditions: ectopic expression activates reporter in HFF-1; indirect; protein in cells; protein details: expression plasmid
SOX2 = SOX2 (UniProt P48431); conditions: overexpression had no effect in HFF-1; indirect; protein in cells; protein details: expression plasmid
OCT4 = OCT4 (UniProt Q01860); conditions: ectopic expression activates reporter in HFF-1; indirect; protein in cells; protein details: expression plasmid
c-MYC = conditions: overexpression had no effect in HFF-1; indirect; protein in cells; protein details: expression plasmid
[1] = target: T1, LBP9 (TFCP2L1), in cells (Homo sapiens) (UniProt Q9NZI6); conditions: protein in cells
T1 sequence (looked up, limits assumed): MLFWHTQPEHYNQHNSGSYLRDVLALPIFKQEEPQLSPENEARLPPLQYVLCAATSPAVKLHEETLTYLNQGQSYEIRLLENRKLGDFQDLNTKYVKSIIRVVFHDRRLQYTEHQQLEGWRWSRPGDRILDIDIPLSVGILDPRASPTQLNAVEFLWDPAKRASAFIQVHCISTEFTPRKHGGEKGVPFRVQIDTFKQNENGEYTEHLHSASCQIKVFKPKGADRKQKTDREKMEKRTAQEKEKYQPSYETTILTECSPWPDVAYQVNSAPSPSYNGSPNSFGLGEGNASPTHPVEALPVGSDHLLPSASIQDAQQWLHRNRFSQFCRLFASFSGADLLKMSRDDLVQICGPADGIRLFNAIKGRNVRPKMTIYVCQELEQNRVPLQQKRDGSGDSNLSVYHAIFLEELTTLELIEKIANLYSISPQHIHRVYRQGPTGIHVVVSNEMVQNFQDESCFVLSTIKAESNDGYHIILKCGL

NANOG, in cells = NANOG, in cells (UniProt Q9H9S0); conditions: ectopic expression activates reporter in HFF-1; indirect; synergy with LBP9; protein in cells; protein details: expression plasmid

Sequence | activity on this sequence (KLF4) | activity on this sequence (SOX2) | activity on this sequence (OCT4) | activity on this sequence (c-MYC) | activity on this sequence ([1]; ectopic expression activates reporter in HFF-1, indirect) | activity on this sequence (NANOG, in cells) | activity on this sequence ([1]; GFP reporter in hiPSCs, signal clearly detected)
ATGCTGCGAGATGGGAAACACATACAAAATCTTCAACCTTCAGTAAGTAAAAACCTTCTCTATTAAAATCTGCAAAGTGTATTCATTTGTTCTAAAATTATTTGCTAAGTGCCCACACAGCACTAGGAATGAAACATAAAAAAATCTCTTCCCTCACTTAGCTTCGTATTCTCTTTGGGAATGTCAGGCCTCTGAGCCCAAGCCAAGCCATCGCATCCCCTATGACATGCACGTACACGCCCAGATGGCCTGAAGTAACTGAAGAATCACAAAAGAAGTGAATATGCCCTGCCCCACCTTAACTGATGACATTCCACCACAAAAGAAGTGTAAATGGCCAGTCCTTGCCTTAACTGATGACATTACCTTGTGAAAGTCCTTTTCCTGGCTCATCCTGGCTCAAAAAGCACCCCCACTGAGCACCTTGCGACCCCCCGCTCCTACCCGCCAGAGAACAAACCCCCTTTGACTGTAATTTTCCTTTACCTAACCAAATCCTATAAAACGGCCCCACCCTTATCTCCCTTCGCTGACTCTCTTTTCGGACTCAGCCCGCCTGCACCCAGGTGAAATAAACAGCCTCGTTGCTCACACAAAGCCTGTTTGGTGGTCTCTTCACACGGACGCGCATGAAATTTGGTGCCGTGACTCGGATCGGGGGACCTCCCTTGGGAGATCAATCCCCTGTCCTCCTGCTCTTTGCTCCGTGAGAAAGATCCACCTACGACCTCAGGTCCTCAGACCAACCAGCCCAAGAAACATCTCACCAATTTCAAATCCGGTAAGCGGCCTCTTTTTACTCTGTTCTCCAACCTCCCTCACTATCCCTCAACCTCTTTCTCCTTTCAATCTTGGCGCCACACTTCAATCTCTCCCTTCTCTTAATTTCAATTCCTTTCATTCTCTGGTAGAGACAAAAGAGACATGTTTTATCCGTGAACCCAAAACTCCGGCGCCGGTCACGGACTGGGAAGGCAGTCTTCCCTTGGTGTTTAATCATTGCAGGGACGCCTCTCTGATTTCACGTTTCAGACCACGCAGGGATGCCTGCCTTGGTCCTTCACCCTTAGCGGCAAGTCCCGCTTTCCTGGGGCAGGGGCAAGTACCCCTCAACCCCTTCTCCTTCACCCTTAGCGGCAAGTCCCGCTTTTCTGGGGCAGGGGCAAGTACCCCTCAACCCCTTCTCCTTCACCC (double strand) [LTR7#2 (ESRG-LTR7 plus HERVH-int reporter fragment)] | active | not active | active | not active | active | active | –
TGCTAAGTGCCCACACAGCACTAGGAATGAAACATAAAAAAATCTCTTCCCTCACTTAGCTTCGTATTCTCTTTGGGAATGTCAGGCCTCTGAGCCCAAGCCAAGCCATCGCATCCCCTATGACATGCACGTACACGCCCAGATGGCCTGAAGTAACTGAAGAATCACAAAAGAAGTGAATATGCCCTGCCCCACCTTAACTGATGACATTCCACCACAAAAGAAGTGTAAATGGCCAGTCCTTGCCTTAACTGATGACATTACCTTGTGAAAGTCCTTTTCCTGGCTCATCCTGGCTCAAAAAGCACCCCCACTGAGCACCTTGCGACCCCCCGCTCCTACCCGCCAGAGAACAAACCCCCTTTGACTGTAATTTTCCTTTACCTAACCAAATCCTATAAAACGGCCCCACCCTTATCTCCCTTCGCTGACTCTCTTTTCGGACTCAGCCCGCCTGCACCCAGGTGAAATAAACAGCCTCGTTGCTCACACAAAGCCTGTTTGGTGGTCTCTTCACACGGACGCGCATGAAATTTGGTGCCGTGACTCGGATCGGGGGACCTCCC (double strand) [LTR7#1 (ESRG-LTR7 reporter fragment)] | – | – | – | – | – | – | active
